In PubChem BioAssay AID248 (DTP/NCI, 2004):
The list does not hold the whole screen: it gathers tests that were run many times, whatever their T/C, doses with no T/C, and many T/C values between a quarter and a half above the control. Other doses and runs of a compound stand elsewhere. T/C is the treated group as % of the vehicle group. Some doses have a count of surviving animals in place of a T/C: the source files T/C as zero there, which appears to mark a toxic dose or a test without result, not a measured value. Some survivor counts are full or nearly so, which does not show that the dose was tolerated: the source hardly ever lists a survival T/C far under the control, and the zero likely stands for such cases as well. Survivors were counted at the toxicity check, usually on the fifth day, unless a day is given; later deaths do not show. Schedule codes are those of the source, taken here to give the interval after Q, in days (D) or hours (H), and the number of doses after X. Some entries hold several experiments; the values are given in rising order. Some schedules carry Z or #; the key to these is not given. Where survival is the endpoint, the PubChem record calls one and a half times the control and up active, and a quarter to a half above the control has no call in these data; cut-offs in other NCI protocols can differ. Some T/C values are followed by the survivors on the day toxicity was checked, most often the fifth; without a count, all were alive then.

System: L1210 leukemia ip in BDF1 mice, survival T/C
Assay: NCI In Vivo Anticancer Drug Screen. Data for tumor model L1210 Leukemia (intraperitoneal) in B6D2F1 (BDF1) mice
Details: higher T/C = longer survival
[1] = T/C endpoint: mean survival time, dose: 20.0 mg/kg/injection, schedule: Q01DX009 (ip), vehicle: saline

N#[N+]c1cnc([O-])[nH]c1=O
survivor count (T/C endpoint: mean survival time, dose: 16.0 mg/kg/injection, schedule: Q## X002 (ip), vehicle: carboxymethylcellulose (CMC)): 5 of 10 | T/C (T/C endpoint: mean survival time, dose: 16.0 mg/kg/injection, schedule: Q## X003 (ip), vehicle: carboxymethylcellulose (CMC)): 146 % of control | T/C (T/C endpoint: mean survival time, dose: 16.0 mg/kg/injection, schedule: Q## X008 (ip), vehicle: carboxymethylcellulose (CMC)): 130 % of control | T/C (T/C endpoint: mean survival time, dose: 16.0 mg/kg/injection, schedule: Q## X016 (ip), vehicle: carboxymethylcellulose (CMC)): 129 % of control | T/C (T/C endpoint: mean survival time, dose: 19.0 mg/kg/injection, schedule: Q01DX001 (ip), vehicle: alkali diluted with saline): 148 % of control | survivor count (T/C endpoint: mean survival time, dose: 20.0 mg/kg/injection, schedule: Q01DX005 (ip), vehicle: Klucel (hydroxypropylcellulose) (HPC)): 4 of 6 | T/C (T/C endpoint: mean survival time, dose: 20.0 mg/kg/injection, schedule: Q01DX005 (ip), vehicle: alkali diluted with saline): 147 % of control | survivor count (T/C endpoint: mean survival time, dose: 20.0 mg/kg/injection, schedule: Q01DX005 (ip), vehicle: saline): 3 of 6 | T/C [1]: 103 % of control | survivor count [1]: 0 of 6 and 1 of 6 | survivor count (T/C endpoint: mean survival time, dose: 20.0 mg/kg/injection, schedule: Q01DX010 (ip), vehicle: saline): 1 of 6 and 2 of 6 | survivor count (T/C endpoint: mean survival time, dose: 20.0 mg/kg/injection, schedule: Q01DX Z (im), vehicle: saline): 2 of 6 | survivor count (T/C endpoint: mean survival time, dose: 20.0 mg/kg/injection, schedule: Q01DX Z (ip), vehicle: saline): 0 of 6 | survivor count (T/C endpoint: mean survival time, dose: 20.0 mg/kg/injection, schedule: Q01DX Z (sc), vehicle: steroid suspending solution): 3 of 6 | T/C (T/C endpoint: mean survival time, dose: 20.0 mg/kg/injection, schedule: Q04DX003 (ip), vehicle: Klucel (hydroxypropylcellulose) (HPC)): 146 % of control | T/C (T/C endpoint: mean survival time, dose: 20.0 mg/kg/injection, schedule: Q04DX003 (ip), vehicle: alkali diluted with saline): 141 % of control | T/C (T/C endpoint: mean survival time, dose: 20.0 mg/kg/injection, schedule: Q04DX003 (ip), vehicle: saline): 129 % of control | survivor count (T/C endpoint: mean survival time, dose: 20.0 mg/kg/injection, schedule: Q#A X Z (ip), vehicle: methylcellulose (MC)): 6 of 6 | T/C (T/C endpoint: mean survival time, dose: 30.0 mg/kg/injection, schedule: Q01DX001 (ip), vehicle: alkali diluted with saline): 134 % of control [5 of 6 alive] | survivor count (T/C endpoint: mean survival time, dose: 30.0 mg/kg/injection, schedule: Q01DX001 (ip), vehicle: saline): 0 of 6 | survivor count (T/C endpoint: mean survival time, dose: 30.0 mg/kg/injection, schedule: Q03DX Z (ip), vehicle: methylcellulose (MC)): 2 of 6 | survivor count (T/C endpoint: mean survival time, dose: 32.0 mg/kg/injection, schedule: Q01DX001 (ip), vehicle: carboxymethylcellulose (CMC)): 5 of 10 | survivor count (T/C endpoint: mean survival time, dose: 32.0 mg/kg/injection, schedule: Q01DX001 (sc), vehicle: carboxymethylcellulose (CMC)): 2 of 10 | survivor count (T/C endpoint: mean survival time, dose: 32.0 mg/kg/injection, schedule: Q01DX009 (ip), vehicle: carboxymethylcellulose (CMC)): 0 of 10 | survivor count (T/C endpoint: mean survival time, dose: 32.0 mg/kg/injection, schedule: Q01DX009 (sc), vehicle: carboxymethylcellulose (CMC)): 0 of 10 | survivor count (T/C endpoint: mean survival time, dose: 32.0 mg/kg/injection, schedule: Q## X002 (ip), vehicle: carboxymethylcellulose (CMC)): 0 of 10 | survivor count (T/C endpoint: mean survival time, dose: 32.0 mg/kg/injection, schedule: Q## X003 (ip), vehicle: carboxymethylcellulose (CMC)): 0 of 10 | T/C (T/C endpoint: mean survival time, dose: 32.0 mg/kg/injection, schedule: Q## X008 (ip), vehicle: carboxymethylcellulose (CMC)): 136 % of control [9 of 10 alive] | T/C (T/C endpoint: mean survival time, dose: 32.0 mg/kg/injection, schedule: Q## X016 (ip), vehicle: carboxymethylcellulose (CMC)): 130 % of control | T/C (T/C endpoint: mean survival time, dose: 32.0 mg/kg/injection, schedule: Q## X024 (ip), vehicle: carboxymethylcellulose (CMC)): 135 % of control | survivor count (T/C endpoint: mean survival time, dose: 35.0 mg/kg/injection, schedule: Q07DX Z (ip), vehicle: methylcellulose (MC)): 0 of 6 | survivor count (T/C endpoint: mean survival time, dose: 40.0 mg/kg/injection, schedule: Q04DX003 (ip), vehicle: Klucel (hydroxypropylcellulose) (HPC)): 0 of 6 | survivor count (T/C endpoint: mean survival time, dose: 40.0 mg/kg/injection, schedule: Q04DX003 (ip), vehicle: alkali diluted with saline): 2 of 6 | survivor count (T/C endpoint: mean survival time, dose: 40.0 mg/kg/injection, schedule: Q04DX003 (ip), vehicle: saline): 0 of 6, 1 of 6, 2 of 6 | survivor count (T/C endpoint: mean survival time, dose: 60.0 mg/kg/injection, schedule: Q01DX001 (ip), vehicle: alkali diluted with saline): 0 of 6 | survivor count (T/C endpoint: mean survival time, dose: 60.0 mg/kg/injection, schedule: Q01DX001 (ip), vehicle: saline): 0 of 6 | survivor count (T/C endpoint: mean survival time, dose: 60.0 mg/kg/injection, schedule: Q03DX Z (ip), vehicle: methylcellulose (MC)): 0 of 6 | survivor count (T/C endpoint: mean survival time, dose: 64.0 mg/kg/injection, schedule: Q01DX001 (ip), vehicle: carboxymethylcellulose (CMC)): 0 of 10 | survivor count (T/C endpoint: mean survival time, dose: 64.0 mg/kg/injection, schedule: Q01DX001 (sc), vehicle: carboxymethylcellulose (CMC)): 0 of 10 | survivor count (T/C endpoint: mean survival time, dose: 64.0 mg/kg/injection, schedule: Q01DX Z (oral), vehicle: methylcellulose (MC)): 2 of 7 | survivor count (T/C endpoint: mean survival time, dose: 64.0 mg/kg/injection, schedule: Q## X002 (ip), vehicle: carboxymethylcellulose (CMC)): 0 of 10 | survivor count (T/C endpoint: mean survival time, dose: 64.0 mg/kg/injection, schedule: Q## X003 (ip), vehicle: carboxymethylcellulose (CMC)): 0 of 10 | survivor count (T/C endpoint: mean survival time, dose: 64.0 mg/kg/injection, schedule: Q## X008 (ip), vehicle: carboxymethylcellulose (CMC)): 5 of 10 | survivor count (T/C endpoint: mean survival time, dose: 64.0 mg/kg/injection, schedule: Q## X016 (ip), vehicle: carboxymethylcellulose (CMC)): 2 of 10 | survivor count (T/C endpoint: mean survival time, dose: 64.0 mg/kg/injection, schedule: Q## X024 (ip), vehicle: carboxymethylcellulose (CMC)): 6 of 10 | survivor count (T/C endpoint: mean survival time, dose: 70.0 mg/kg/injection, schedule: Q07DX Z (ip), vehicle: methylcellulose (MC)): 0 of 6 | survivor count (T/C endpoint: mean survival time, dose: 80.0 mg/kg/injection, schedule: Q01DX006 (iv), vehicle: saline): 0 of 6 | T/C (T/C endpoint: mean survival time, dose: 80.0 mg/kg/injection, schedule: Q01DX Z (oral), vehicle: saline): 125 % of control | survivor count (T/C endpoint: mean survival time, dose: 120.0 mg/kg/injection, schedule: Q01DX001 (ip), vehicle: alkali diluted with saline): 0 of 6 | survivor count (T/C endpoint: mean survival time, dose: 120.0 mg/kg/injection, schedule: Q01DX001 (ip), vehicle: saline): 0 of 6 and 1 of 6 | survivor count (T/C endpoint: mean survival time, dose: 120.0 mg/kg/injection, schedule: Q03DX Z (ip), vehicle: methylcellulose (MC)): 0 of 6 | survivor count (T/C endpoint: mean survival time, dose: 140.0 mg/kg/injection, schedule: Q07DX Z (ip), vehicle: methylcellulose (MC)): 0 of 6 | survivor count (T/C endpoint: mean survival time, dose: 160.0 mg/kg/injection, schedule: Q01DX009 (oral), vehicle: carboxymethylcellulose (CMC)): 6 of 10 | survivor count (T/C endpoint: mean survival time, dose: 160.0 mg/kg/injection, schedule: Q01DX Z (oral), vehicle: saline): 2 of 6 | survivor count (T/C endpoint: mean survival time, dose: 280.0 mg/kg/injection, schedule: Q07DX Z (ip), vehicle: methylcellulose (MC)): 0 of 6 | survivor count (T/C endpoint: mean survival time, dose: 320.0 mg/kg/injection, schedule: Q01DX Z (oral), vehicle: saline): 0 of 6 | survivor count (T/C endpoint: mean survival time, dose: 640.0 mg/kg/injection, schedule: Q01DX001 (oral), vehicle: carboxymethylcellulose (CMC)): 0 of 10 | T/C (T/C endpoint: median survival time, dose: 2.5 mg/kg/injection, schedule: Q01DX009 (ip), vehicle: saline): 127 and 142 % of control [5 of 6 alive] | T/C (T/C endpoint: median survival time, dose: 5.0 mg/kg/injection, schedule: Q01DX009 (ip), vehicle: saline): 144 % of control | survivor count (T/C endpoint: median survival time, dose: 20.0 mg/kg/injection, schedule: Q01DX009 (ip), vehicle: saline): 3 of 6 and 4 of 6
